At least one read-out could not be matched to a standard name with certainty. Some entries share one result that the patent states for a list of compounds.
System: colon cancer cell line HCT116
Assay: THP-1-mediated phagocytic activity against HCT116 (Examples 3 to 6)
Type: cell-based, human
Details: for phagocytic activity against cancer cells: then anti-CAPRIN-1 humanized antibody #1 1 μg/mL; for increase of the antitumor effect of the anti-CAPRIN-1 antibody by the combination: versus antibody alone
Experimental: (§1) Specifically, in each RAS inhibitor combination test group, the indicated drug used in combination was applied to human cancer cells, and then the cancer cells were cocultured with human monocytic cells (THP-1) in the presence of the anti-CAPRIN-1 antibody, and the antibody-mediated phagocytic activity against the cancer cells by THP-1 was evaluated.
(§2) The human-derived cancer cells used were a colon cancer cell line HCT116. On a 6-well plate, the human-derived cancer cells were cultured for 2 days in the presence of the indicated drug used in combination in the lonafarnib combination test group, the sotorasib combination test group and the salirasib combination test group. Specifically, for HCT116, lonafarnib was added at a concentration of 10 μM, sotorasib was added at a concentration of 10 μM, and salirasib was added at a concentration of 100 μM. As a control, a test group without a drug used in combination was established. In the control group, the cancer cells were cultured beforehand for 2 days in a state without addition of the drug used in combination.
Each cancer cell line after the culture was dissociated with TrypLE Express (Thermo), and the cancer cells were stained by the addition of calcein-AM at a final concentration of 0.04 μg/mL and incubation at 37° C. for 10 minutes. Next, the cells were dispensed at 5×10^3 cancer cells per well to a 96-well plate, and the anti-CAPRIN-1 antibody (final concentration: 1 μg/mL) and 1.25×10^5 THP-1 cells were added to each well, followed by culture at 37° C. for 1 hour under a condition of 5% CO2. Then, the cells were washed with PBS (phosphate buffer solution) containing 1% FBS (fetal bovine serum), and the human monocytic cells were stained through a reaction with an APC (allophycocyanin)-labeled anti-human CD45 antibody (final concentration: 0.25 μg/mL). Further, dead cells were stained with propidium iodide (PI) (final concentration: 0.1 μg/mL), followed by the measurement of fluorescence from the cells by flow cytometry. PI-positive dead cells were excluded from analysis. The human monocytic cells THP-1 recognize an antibody bound onto cancer cells and phagocytize the cancer cells. At that time, if the cancer cells have been stained with calcein-AM, the monocytic cells ingesting the cancer cells by phagocytosis also become positive to calcein-AM. Thus, the phagocytic activity in this evaluation system was calculated as the ratio (%) of APC-positive/calcein-AM-positive cells to the whole calcein-AM-positive population.
as §1, with “RAF” for “RAS”
as §2, with “dabrafenib” for “lonafarnib combination test group, the sotorasib”, “ZM 336372combination” for “salirasib combination”, “dabrafenib” for “lonafarnib”, “μM” for “μM, sotorasib was added at a concentration of 10 μM,”, “ZM 336372” for “salirasib”
as §1, with “MEK” for “RAS”
The human-derived cancer cells used were a colon cancer cell line HCT116. […]

[1] = cells cultured 2 days with drug at 10 μM, FIG. 3

In the case of `Cc1ccc(NC(=O)c2cccc(N(C)C)c2)cc1NC(=O)c1ccc(O)cc1` [ZM 336372, 3-(dimethylamino)-N-[3-[(4-hydroxybenzoyl)amino]-4-methylphenyl]benzamide], the “phagocytic activity against cancer cells” value (cells cultured 2 days with drug at 100 μM, FIG. 4) is reported as at least 75%.

With `CC(C)(C)c1nc(-c2cccc(NS(=O)(=O)c3c(F)cccc3F)c2F)c(-c2ccnc(N)n2)s1` [dabrafenib, N-[3-[5-(2-aminopyrimidin-4-yl)-2-tert-butyl-1,3-thiazol-4-yl]-2-fluorophenyl]-2,6-difluorobenzenesulfonamide] the “phagocytic activity against cancer cells” value (cells cultured 2 days with drug at 10 μM, FIG. 4) was at least 75%.

With `COc1cc(F)c(F)c(Nc2ccc(I)cc2F)c1NS(=O)(=O)C1(C[C@H](O)CO)CC1` [refametinib, N-[3,4-difluoro-2-(2-fluoro-4-iodoanilino)-6-methoxyphenyl]-1-[(2S)-2,3-dihydroxypropyl]cyclopropane-1-sulfonamide] the “phagocytic activity against cancer cells” value (cells cultured 2 days with drug at 1000 nM, FIG. 3) was at least 93% and the “increase of the antitumor effect of the anti-CAPRIN-1 antibody by the combination” value (“increase” below) (drug 1000 nM, FIG. 3) was 1.8 times.

For `Cn1cnc2c(F)c(Nc3ccc(Br)cc3Cl)c(C(=O)NOCCO)cc21` [selumetinib, 6-(4-bromo-2-chloroanilino)-7-fluoro-N-(2-hydroxyethoxy)-3-methylbenzimidazole-5-carboxamide], the “phagocytic activity against cancer cells” value [1] was at least 93% and the “increase” value (drug 10 μM, FIG. 3) was 1.8 times.

With `N#C/C(=C(/N)Sc1ccc(N)cc1)c1ccccc1C(F)(F)F` [SL-327, (Z)-3-amino-3-(4-aminophenyl)sulfanyl-2-[2-(trifluoromethyl)phenyl]prop-2-enenitrile] the “phagocytic activity against cancer cells” value [1] was at least 93% and the “increase” value (drug 10 μM, FIG. 3) was 1.8 times.

For `O=C(c1ccc(F)c(F)c1Nc1ccc(I)cc1F)N1CC(O)([C@@H]2CCCCN2)C1` [cobimetinib, [3,4-difluoro-2-(2-fluoro-4-iodoanilino)phenyl]-[3-hydroxy-3-[(2S)-piperidin-2-yl]azetidin-1-yl]methanone], the “phagocytic activity against cancer cells” value (cells cultured 2 days with drug at 800 nM, FIG. 3) was at least 93% and the “increase” value (drug 800 nM, FIG. 3) was 1.8 times.
